Data as given in article PMC9649811.
Results are given in words; binding and its absence hold for the method and conditions named. Binding seen in cells or lysates may run through a third protein. Some results given as binding are weak or reduced against the parent protein; the word gives no strength.

Molecular target: heat shock protein 90α (mouse (endogenous in primary BMECs)) (UniProt P07901)
Experiment: co-IP; protein extracted from endothelial cells (BMECs, RIPA lysis buffer with 1% PMSF) incubated with Cav-1, HSP90α or negative control IgG antibody overnight at 4 °C; protein A/G agarose beads 4 h at 4 °C; eluate immunoblotted; the results also mention hypoxic treatment of the cells

binding: binds
B1: Caveolin-1 (protein, UniProt P49817 1-178)
chain: MSGGKYVDSEGHLYTVPIREQGNIYKPNNKAMADEVTEKQVYDAHTKEIDLVNRDPKHLNDDVVKIDFEDVIAEPEGTHSFDGIWKASFTTFTVTKYWFYRLLSTIFGIPMALIWGIYFAILSFLHIWAVVPCIKSFLIEIQCISRVYSIYVHTFCDPLFEAIGKIFSNIRISTQKEI
